Data as given in PubChem BioAssay AID504764 (Drosophila RNAi Screening Center, 2011)
Test: 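Genes whose knock-down alters Notch-dependent transcription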 (primary screen). Cell system: Drosophila Kc167 cells. Reagents: long dsRNA against Drosophila genes. Timing: about 5 days (4 days dsRNA, then 24 h after transfection). Treatment: transfection of constitutively active membrane-tethered Notch lacking the extracellular domain, read 24 h later. Measurement: 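Firefly luciferase from an E(spl)m3 reporter with active Notch, plus control-promoter and uninduced reporter wells for normalisation; unnormalised counts, duplicate wells a and b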. Scale: induced reporter light, run 1, well a and induced reporter light, run 1, well b: higher = more light from the Notch target reporter with active Notch; control promoter light, run 1, well a and control promoter light, run 1, well b: higher = more light from the viral control promoter (cell number, transfection, viability); uninduced reporter light, run 1, well a: higher = more light from the Notch target reporter without active Notch. Hit rule: 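Hit if the duplicate-averaged log2 ratio of induced to control-promoter light gives a plate-wise z beyond ±2, or induced to uninduced beyond ±1.8; weak-control or discordant-duplicate wells dropped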. Calls: active = modifier hit (raised or lowered Notch signal); inactive = not a hit.
The screen tested about 22,000 reagents; this is a random part of those that have a named target and a result. Of all reagents, 403 (1.9%) were called active. 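Unnormalised raw counts per well; ratio z-scores behind the hit calls and whether each hit raises or lowers signal are not deposited.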 The record does not give: the amount of reagent.

{"predicted target": "Jon74E (Jonah 74E)", "DRSC id": "DRSC10617", "induced reporter light, run 1, well a": 1.79e5, "induced reporter light, run 1, well b": 1.46e5, "control promoter light, run 1, well a": 2.05e5, "control promoter light, run 1, well b": 1.88e5, "uninduced reporter light, run 1, well a": 7470, "Outcome": "inactive"}
{"predicted target": "CRAT (Carnitine O-Acetyl-Transferase)", "DRSC id": "DRSC12523", "induced reporter light, run 1, well a": 58710, "induced reporter light, run 1, well b": 86970, "control promoter light, run 1, well a": 59905, "control promoter light, run 1, well b": 66410, "uninduced reporter light, run 1, well a": 6715, "Outcome": "inactive"}
{"predicted target": "CG5850", "DRSC id": "DRSC02905", "induced reporter light, run 1, well a": 2.12e5, "induced reporter light, run 1, well b": 1.92e5, "control promoter light, run 1, well a": 1.41e5, "control promoter light, run 1, well b": 1.48e5, "uninduced reporter light, run 1, well a": 16265, "Outcome": "inactive"}
{"predicted target": "CG4168", "DRSC id": "DRSC01446", "induced reporter light, run 1, well a": 86695, "induced reporter light, run 1, well b": 1.03e5, "control promoter light, run 1, well a": 91035, "control promoter light, run 1, well b": 88830, "uninduced reporter light, run 1, well a": 9600, "Outcome": "inactive"}
{"predicted target": "CG4168", "DRSC id": "DRSC01447", "induced reporter light, run 1, well a": 1.19e5, "induced reporter light, run 1, well b": 85660, "control promoter light, run 1, well a": 1.17e5, "control promoter light, run 1, well b": 72170, "uninduced reporter light, run 1, well a": 8145, "Outcome": "inactive"}
{"predicted target": "CG4168", "DRSC id": "DRSC01933", "induced reporter light, run 1, well a": 2.22e5, "induced reporter light, run 1, well b": 1.85e5, "control promoter light, run 1, well a": 1.87e5, "control promoter light, run 1, well b": 1.90e5, "uninduced reporter light, run 1, well a": 17470, "Outcome": "inactive"}
{"predicted target": "CG4168", "DRSC id": "DRSC22789", "Outcome": "active"}
{"predicted target": "Hdc (Histidine decarboxylase)", "DRSC id": "DRSC07439", "induced reporter light, run 1, well a": 1.98e5, "induced reporter light, run 1, well b": 2.36e5, "control promoter light, run 1, well a": 1.92e5, "control promoter light, run 1, well b": 1.77e5, "uninduced reporter light, run 1, well a": 16465, "Outcome": "inactive"}

Entries above called active:
{"predicted target": "CG4168", "DRSC id": "DRSC22789", "Outcome": "active"}

The results go on.
{"predicted target": "CG7326", "DRSC id": "DRSC20037", "induced reporter light, run 1, well a": 75040, "induced reporter light, run 1, well b": 74565, "control promoter light, run 1, well a": 98405, "control promoter light, run 1, well b": 1.05e5, "uninduced reporter light, run 1, well a": 9160, "Outcome": "inactive"}
{"predicted target": "CG4830", "DRSC id": "DRSC15657", "induced reporter light, run 1, well a": 72395, "induced reporter light, run 1, well b": 94915, "control promoter light, run 1, well a": 84975, "control promoter light, run 1, well b": 80725, "uninduced reporter light, run 1, well a": 3890, "Outcome": "inactive"}
{"predicted target": "Amacr (Alpha-methylacyl-CoA racemase)", "DRSC id": "DRSC03198", "induced reporter light, run 1, well a": 2.87e5, "induced reporter light, run 1, well b": 2.82e5, "control promoter light, run 1, well a": 2.43e5, "control promoter light, run 1, well b": 2.38e5, "uninduced reporter light, run 1, well a": 16455, "Outcome": "inactive"}
{"predicted target": "CG6664", "DRSC id": "DRSC10690", "induced reporter light, run 1, well a": 1.29e5, "induced reporter light, run 1, well b": 1.58e5, "control promoter light, run 1, well a": 87665, "control promoter light, run 1, well b": 1.15e5, "uninduced reporter light, run 1, well a": 11750, "Outcome": "inactive"}
